Results as given in patent US20180141988A1 (Pieris, published 2018).
Results are given in words; binding and its absence hold for the method and conditions named. Some entries that bind do so weakly or less than the wild type.

Amino acid sequences for entries named in this document (tags omitted). Residues count along the entry.
UniProt P51654, residues 25-559: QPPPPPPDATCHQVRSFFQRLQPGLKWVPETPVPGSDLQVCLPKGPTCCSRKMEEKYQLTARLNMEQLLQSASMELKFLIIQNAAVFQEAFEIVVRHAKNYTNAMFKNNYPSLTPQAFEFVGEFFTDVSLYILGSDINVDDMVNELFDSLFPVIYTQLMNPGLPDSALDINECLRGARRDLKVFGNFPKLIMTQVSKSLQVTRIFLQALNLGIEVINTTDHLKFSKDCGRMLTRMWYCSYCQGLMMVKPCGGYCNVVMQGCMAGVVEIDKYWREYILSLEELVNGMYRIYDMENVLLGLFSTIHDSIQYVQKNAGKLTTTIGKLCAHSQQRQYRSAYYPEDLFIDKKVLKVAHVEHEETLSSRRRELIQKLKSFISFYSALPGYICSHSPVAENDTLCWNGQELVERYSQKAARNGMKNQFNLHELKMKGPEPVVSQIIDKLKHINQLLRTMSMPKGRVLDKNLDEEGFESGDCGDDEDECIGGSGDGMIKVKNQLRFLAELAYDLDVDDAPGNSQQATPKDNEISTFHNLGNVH
UniProt Q8CFZ4: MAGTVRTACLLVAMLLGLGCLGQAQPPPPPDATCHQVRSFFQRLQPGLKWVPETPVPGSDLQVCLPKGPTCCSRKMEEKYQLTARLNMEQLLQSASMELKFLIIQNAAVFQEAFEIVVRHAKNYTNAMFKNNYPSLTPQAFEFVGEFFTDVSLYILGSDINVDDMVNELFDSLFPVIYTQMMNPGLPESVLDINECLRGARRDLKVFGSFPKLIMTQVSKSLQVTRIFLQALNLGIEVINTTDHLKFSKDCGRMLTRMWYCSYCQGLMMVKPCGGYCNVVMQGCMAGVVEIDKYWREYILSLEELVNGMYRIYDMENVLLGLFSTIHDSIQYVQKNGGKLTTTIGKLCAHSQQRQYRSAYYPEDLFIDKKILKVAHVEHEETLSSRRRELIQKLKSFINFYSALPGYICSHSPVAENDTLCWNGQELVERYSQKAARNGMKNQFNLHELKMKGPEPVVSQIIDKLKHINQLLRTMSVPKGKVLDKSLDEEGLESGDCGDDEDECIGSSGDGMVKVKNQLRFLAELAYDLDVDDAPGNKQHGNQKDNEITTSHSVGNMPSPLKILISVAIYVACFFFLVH

Experiments:
[1] = biological target: Human GPC3 (2119-GP; R&D systems), biotinylated (human) (UniProt P51654); assay: SPR (Biacore T200)
[2] = biological target: murine GPC3 (6938-GP; R&D systems), biotinylated (murine) (UniProt Q8CFZ4); assay: SPR (Biacore T200)

B1: lipocalin mutein of SEQ ID NO: 5 (designed binder)
chain: QDSTSDLIPAPPLSKVPLQQNFQDNQFQGKWYVVGVAGNALLREDKDPLKMRATIYELKEDKSYDVTVVSFWRKKCHYKIGTFVPGSQPGEFTLGDIKSGPGQTSNLVRVVSTNYNQHAMVFFKEVRQNREWFAITLYGRTKELTSELKENFIRFSKSLGLPENHIVFPVPIDQCIDGSAWSHPQFEK
notes: hNGAL (Lcn2) mutein; also called optimized GPC3 specific lipocalin mutein
For B1, the binding [1] was “binds” and the binding [2] was “binds”.

B2: lipocalin mutein of SEQ ID NO: 6 (designed binder)
chain: QDSTSDLIPAPPLSKVPLQQNFQDNQFQGKWYVVGVAGNVRLREDKDPPKMRATIYELKEDKSYDVTGVSFRGKKCHYKIGTFVPGSQPGEFTLGDIKSGPGETSNLVRVVSTNYNQHAMVFFKEVRQNREWFFITLYGRTKELTSELKENFIRFSKSLGLPENHIVFPVPIDQCIDGSAWSHPQFEK
notes: as for B1
With B2 the binding [1] was “binds” and the binding [2] was “binds”.

B3: lipocalin mutein of SEQ ID NO: 7 (designed binder)
chain: QDSTSDLIPAPPLSKVPLQQNFQDNQFQGKWYVVGVAGNGMLREDKDPLKMRATIYELKEDKSYDVTSVAFRNKKCHYKIGTFVPGSQPGEFTLGQIKSGPGETSNLVRVVSTNYNQHAMVFFKEVRQNREWFFITLYGRTKELTSELKENFIRFSKSLGLPENHIVFPVPIDQCIDGSAWSHPQFEK
notes: as for B1
For B3, the binding [1] was “binds” and the binding [2] was “binds”.

B4: lipocalin mutein of SEQ ID NO: 8 (designed binder)
chain: QDSTSDLIPAPPLSKVPLQQNFQDNQFQGKWYVVGRAGNVGLREDKDPPKMWATIYELKEDKSYDVTNVRFARKKCLYSIGTFVPGSQPGEFTLGQIKSEPGNTANLVRVVSTNYNQHAMVFFKEVYQNREIFFIILYGRTKELTSELKENFIRFSKSLGLPENHIVFPVPIDQCIDGSAWSHPQFEK
notes: as for B1
For B4, the binding [1] was “binds” and the binding [2] was “binds”.

B5: lipocalin mutein of SEQ ID NO: 16 (designed binder)
chain: QDSTSDLIPAPPLSKVPLQQNFQDNQFQGKWYVVGRAGNVGLREDKDPPKMRATIYELKEDKSYDVTGVRFDSKKVTYSIGTFVPGSQPGEFTLGQIKSEPGNTANLVRVVSTNYNQHAMVFFKEVYQNREIFFIILYGRTKELTSELKENFIRFSKSLGLPENHIVFPVPIDQAIDGSAWSHPQFEK
notes: as for B1
In the case of B5, the binding [1] is reported as “binds” and the binding [2] is reported as “binds”.

B6: lipocalin mutein of SEQ ID NO: 12 (designed binder)
chain: QDSTSDLIPAPPLSKVPLQQNFQDNQFQGKWYVVGRAGNVALREDKDPPKMRATIYELKEDKSYDVTNVVFAGKKCKYSIGTFVPGSQPGEFTLGRIKSPPGNTANLVRVVSTNYNQHAMVFFKEVYQNREIFFIILYGRTKELTSELKENFIRFSKSLGLPENHIVFPVPIDQCIDGSAWSHPQFEK
notes: as for B1
B6 was tested, and the binding [1] was “binds” and the binding [2] was “binds”.

B7: lipocalin mutein of SEQ ID NO: 14 (designed binder)
chain: QDSTSDLIPAPPLSKVPLQQNFQDNQFQGKWYVVGRAGNVGLREDKDPPKMWATIYELKEDKSYDVTNVRFAGKKVKYTIGTFVPGSQPGEFTLGQIKSEPGNTATLVRVVSTNYNQHAMVFFKEVYQNREIFFITLYGRTKELTSELKENFIRFSKSLGLPENHIVFPVPIDQAIDGSAWSHPQFEK
notes: as for B1
For B7, the binding [1] was “binds” and the binding [2] was “binds”.

B8: lipocalin mutein of SEQ ID NO: 15 (designed binder)
chain: QDSTSDLIPAPPLSKVPLQQNFQDNQFQGKWYVVGRAGNVGLREDKDPPKMRATIYELKEDKSYDVTGVRFGEKKIKYSIGTFVPGSQPGEFTLGQIKSQPGDTANLVRVVSTNYNQHAMVFFKEVYQNREIFFIILYGRTKELTSELKENFIRFSKSLGLPENHIVFPVPIDQAIDGSAWSHPQFEK
notes: as for B1
For B8, the binding [1] was “binds” and the binding [2] was “binds”.

B9: lipocalin mutein of SEQ ID NO: 9 (designed binder)
chain: QDSTSDLIPAPPLSKVPLQQNFQDNQFQGKWYVVGRAGNVGLREDKDPPKMWATIYELKEDKSYDVTNVRFARKKCTYSIGTFVPGSQPGEFTLGQIKSEPGGTANLVRVVSTNYNQHAMVFFKEVYQNREIFFIILYGRTKELTSELKENFIRFSKSLGLPENHIVFPVPIDQCIDGSAWSHPQFEK
notes: as for B1
B9 was tested, and the binding [1] was “binds” and the binding [2] was “binds”.

B10: lipocalin mutein of SEQ ID NO: 10 (designed binder)
chain: QDSTSDLIPAPPLSKVPLQQNFQDNQFQGKWYVVGRAGNGALREDKDPPKMWATIYELKEDKSYDVTNVRFARKKCVYSIGTFVPGSQPGEFTLGPIKSEPGNTASLVRVVSTNYNQHAMVFFKEVYQNREIFFIILYGRTKELTSELKENFIRFSKSLGLPENHIVFPVPIDQCIDGSAWSHPQFEK
notes: as for B1
In the case of B10, the binding [1] is reported as “binds” and the binding [2] is reported as “binds”.

B11: lipocalin mutein of SEQ ID NO: 11 (designed binder)
chain: QDSTSDLIPAPPLSKVPLQQNFQDNQFQGKWYVVGRAGNVALREDKDPPKMRATIYELKEDKSYDVTAVRFARKKCLYSIGTFVPGSQPGEFTLGRIKSEPGYTANLVRVVSTNYNQHAMVFFKEVYQNREIFFIILYGRTKELTSELKENFIRFSKSLGLPENHIVFPVPIDQCIDGSAWSHPQFEK
notes: as for B1
B11 was tested, and the binding [1] was “binds” and the binding [2] was “binds”.

B12: lipocalin mutein of SEQ ID NO: 13 (designed binder)
chain: QDSTSDLIPAPPLSKVPLQQNFQDNQFQGKWYVVGRAGNLGLREDKDPPKMWATIYELKEDKSYDVTNVRFARKKCMYSIGTFVPGSQPGEFTLGQIKSEPGSTANLVRVVSTNYNQHAMVFFKEVYQNREIFFITLYGRTKELTSELKENFIRFSKSLGLPENHIVFPVPIDQCIDGSAWSHPQFEK
notes: as for B1
B12 was tested, and the binding [1] was “binds” and the binding [2] was “binds”.
